Measured values reported in patent publication US20130224313A1 (CENTRO DE INGENIERIA GENETICA Y BIOTECNOLOGIA, published 2013).
These are yes or no findings as the source states them, for the method shown. For part of these data: Binding seen in cells or lysates may run through a third protein. Some entries that bind do so weakly or less than the wild type.

By UniProt entry, the sequences of proteins in these tests, tags left out. Where a name states a change or a piece, a line headed by the entry shows the natural chain unless it says otherwise. Residues count along the entry.
UniProt Q8N668: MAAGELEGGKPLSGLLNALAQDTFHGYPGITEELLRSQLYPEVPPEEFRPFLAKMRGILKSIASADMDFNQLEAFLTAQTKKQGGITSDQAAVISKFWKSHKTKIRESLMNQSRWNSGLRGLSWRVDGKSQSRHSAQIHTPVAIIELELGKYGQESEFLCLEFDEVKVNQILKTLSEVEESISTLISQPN
COMMD1 protein (endogenous, in tumor cells and their total protein extracts): residues 2-190 of Q8N668

What was measured:
[1] = molecular target: COMMD1, complete sequence of the COMMD1 gene (two-hybrid plasmid) (human) (UniProt Q8N668); assay: yeast two-hybrid mating (FIG. 1)
[2] = molecular target: COMMD1 protein (endogenous, in tumor cells and their total protein extracts) (human) (UniProt Q8N668); assay: pulldown: biotinylated peptide on streptavidin sepharose, SW948 total extract, anti-COMMD1 Western blot
[3] = molecular target: COMMD1 protein (endogenous, in tumor cells and their total protein extracts) (human) (UniProt Q8N668); assay: pulldown from SW948 extract, Western blot (FIG. 2A)

binding [1]	binding [2]	binding [3]	Binder
binds			HARIKPTFRRLKWKYKGKFW (Two-hybrid bait; not shown: fusion partner encoded by the pGBKT7 two-hybrid bait vector) [L2 peptide expressed from plasmid pGBKL2-1 (pGBKT7 vector) in yeast strain AH109]
	binds	binds	HARIKPTFRRLKWKYKGKFW (biotinylated (site not stated)) [synthetic L2 peptide, biotinylated, attached to streptavidin sepharose resin]
